# This is one part of the list. For some assays here: The source does not settle which construct or isoform was used.
# What was measured:
# Test in all cases: protein microarray (ProtoArray v5.0), streptavidin-Alexa Fluor 647
# Conditions in all cases: 3'-biotin; 20 mM Tris (pH 7.5), 5 mM MgCl2, 100 mM KCl, 0.1% Tween-20, A/T-rich and random oligonucleotide blockers; temperature not stated; high values mean tight binding
# [1] = tested on: PHGDH (human)
# [2] = tested on: PIM2 (human)
# [3] = tested on: PIPOX (human)
# [4] = tested on: PITPNC1 (human)
# [5] = tested on: PKIB (human)
# [6] = tested on: PKNOX1 (human)
# [7] = target: PLA2G7 (UniProt Q13093)
# [8] = tested on: PLS3 (human)
# [9] = tested on: PLXDC1 (human)
# [10] = target: POLB (UniProt P06746)
# [11] = tested on: POLE3 (human)
# [12] = tested on: POLR2I (human)
# [13] = tested on: PPAP2B (human)
# [14] = tested on: PPM1A (human)
# [15] = tested on: PPP1R16B (human)
# [16] = tested on: PPP1R2 (human)
# [17] = tested on: PPP2R2C (human)
# [18] = tested on: PPP3R2 (human)
# [19] = target: T1, PPT1 (UniProt P50897)
# T1 sequence: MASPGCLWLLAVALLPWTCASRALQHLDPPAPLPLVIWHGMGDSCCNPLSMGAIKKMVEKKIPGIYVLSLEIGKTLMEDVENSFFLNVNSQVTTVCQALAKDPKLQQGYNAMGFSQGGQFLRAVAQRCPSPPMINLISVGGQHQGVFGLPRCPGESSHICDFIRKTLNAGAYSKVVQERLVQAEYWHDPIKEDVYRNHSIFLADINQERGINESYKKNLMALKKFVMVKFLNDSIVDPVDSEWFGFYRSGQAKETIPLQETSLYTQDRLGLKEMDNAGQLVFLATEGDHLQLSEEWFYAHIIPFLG
# [20] = tested on: PPT2 (human)
sequence,measurement,setting,value
GGGGACAGGGGTATGGGGAGGGG [G4-3 biotinylated (CtG)],binding signal,[1],-0.331 z-score
same,binding signal,[2],-0.332 z-score
same,binding signal,[3],-0.321 z-score
same,binding signal,[4],-0.327 z-score
same,binding signal,[5],-0.329 z-score
same,binding signal,[6],-0.324 z-score
same,binding signal,[7],-0.311 z-score
same,binding signal,[8],-0.333 z-score
same,binding signal,[9],-0.32 z-score
same,binding signal,[10],5.02 z-score
same,binding signal,[11],-0.335 z-score
same,binding signal,[12],-0.335 z-score
same,binding signal,[13],-0.306 z-score
same,binding signal,[14],-0.318 z-score
same,binding signal,[15],-0.28 z-score
same,binding signal,[16],-0.328 z-score
same,binding signal,[17],-0.321 z-score
same,binding signal,[18],-0.33 z-score
same,binding signal,[19],-0.326 z-score
same,binding signal,[20],-0.332 z-score

# 2 entries from above, as tab-separated lines:
sequence	measurement	setting	value
GGGGACAGGGGTATGGGGAGGGG [G4-3 biotinylated (CtG)]	binding signal	[16]	-0.328 z-score
same	binding signal	[17]	-0.321 z-score
